We go through 3 compounds from the Kinase Knowledgebase extract (Sharma et al. 2016).

The chains behind the UniProt entries cited, without tags or fusion partners. Where a name states a change or a piece, a line headed by the entry shows the natural chain unless it says otherwise.
UniProt P42338: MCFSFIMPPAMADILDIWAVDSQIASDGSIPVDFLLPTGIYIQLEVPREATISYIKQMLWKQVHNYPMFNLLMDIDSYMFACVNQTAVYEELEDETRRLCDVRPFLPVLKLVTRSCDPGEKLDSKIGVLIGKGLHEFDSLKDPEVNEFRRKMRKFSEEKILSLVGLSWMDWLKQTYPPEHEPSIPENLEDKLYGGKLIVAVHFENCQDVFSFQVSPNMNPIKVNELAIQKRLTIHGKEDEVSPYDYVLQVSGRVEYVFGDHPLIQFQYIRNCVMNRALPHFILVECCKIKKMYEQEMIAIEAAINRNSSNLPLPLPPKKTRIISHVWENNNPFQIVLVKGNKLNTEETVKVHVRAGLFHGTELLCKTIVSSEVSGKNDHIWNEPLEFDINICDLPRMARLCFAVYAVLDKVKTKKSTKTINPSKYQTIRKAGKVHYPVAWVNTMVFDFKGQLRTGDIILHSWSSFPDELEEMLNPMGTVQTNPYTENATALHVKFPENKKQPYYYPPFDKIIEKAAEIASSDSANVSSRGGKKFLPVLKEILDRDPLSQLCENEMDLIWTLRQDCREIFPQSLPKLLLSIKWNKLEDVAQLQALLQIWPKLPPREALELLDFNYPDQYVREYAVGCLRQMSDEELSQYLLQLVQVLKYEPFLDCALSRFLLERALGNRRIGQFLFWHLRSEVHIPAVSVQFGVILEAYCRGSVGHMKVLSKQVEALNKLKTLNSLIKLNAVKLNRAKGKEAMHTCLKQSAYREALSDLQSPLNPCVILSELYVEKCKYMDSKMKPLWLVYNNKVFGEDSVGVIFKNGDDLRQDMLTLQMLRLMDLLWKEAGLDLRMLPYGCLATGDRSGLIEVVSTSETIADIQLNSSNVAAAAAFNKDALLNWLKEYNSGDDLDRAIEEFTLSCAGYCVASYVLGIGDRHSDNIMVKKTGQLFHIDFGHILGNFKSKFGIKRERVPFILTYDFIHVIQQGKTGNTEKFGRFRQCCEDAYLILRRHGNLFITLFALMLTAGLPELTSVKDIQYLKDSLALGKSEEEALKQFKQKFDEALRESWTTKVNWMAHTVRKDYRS

For the experiment, the target named is PIK3CB (Human) (UniProt P42338).
The compound `COc1cc(-c2nn(C(C)C)c3ncnc(N)c23)ccc1O` returned a half-inhibitory concentration (IC50) of 1000 to 50000 nM.
Under `Nc1ncnc2c1c(-c1ccc(Cl)c(O)c1)nn2[C@@H]1CCNC1` stands below 1000 nM.
`CC(C)n1nc(-c2ccc(C(N)=O)c(Cl)c2)c2c(N)ncnc21` gave an IC50 of 1000 to 50000 nM.

In general, IC50 refers to the concentration at which inhibition is half-maximal.
